Test results: PubChem BioAssay AID1487 (National Center for Advancing Translational Sciences (NCATS), 2009)
The list shows a part of the results. The main result of the screen is listed elsewhere. These columns were measured beside it and carry no call. Compounds called inactive in the main read-out are mostly missing here. Words in brackets tell the shape of the fitted curve; partial curves, single points and poor fits give uncertain potencies.

Experiment: qHTS Assay for Modulators of Lamin A Splicing
Settings: HeLa LMNA splicing GFP/RFP minigene ratio, 48 h
How it was run: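 S3 HeLa stable clones carrying a lamin A-EGFP splicing minigene plus DsRed2 were seeded at 600 cells/well in Opti-MEM with 2% FBS, pin-dosed and incubated 48 h at 37°C. Acumen cytometry (488 nm) gave the GFP/RFP total-intensity ratio.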

[1] = measured here: RFP viability control channel
[2] = measured here: GFP splicing reporter channel

| Structure (SMILES) | AC50 [1] | AC50 [2] |
| --- | --- | --- |
| Cc1c2c(n3c(nc4ccccc43)c1C#N)N(c1ccccc1)CC2 | 0.251 µM [rising, full curve, poor fit] |  |
| COc1ccc2c(c1OC)C(=O)OC2Nc1nc(-c2ccccc2)cs1 (stereo not drawn) | 35.5 µM [falling, single point] | 35.5 µM [falling, single point] |
| CCCCSc1nnc(CCCCCNC(=O)OC(C)(C)C)o1 | 25.1 µM [rising, single point] | 12.6 µM [rising, single point] |
| Cc1cccc(N2CCN(C(=O)c3ccc(CS(=O)(=O)c4ccccc4C)o3)CC2C)c1 (stereo not drawn) | 4.47 µM [rising, full curve] | 10 µM [rising, partial curve, poor fit] |
| O=C1S/C(=C/c2ccccc2F)C(=O)N1CCN=C1NS(=O)(=O)c2ccccc21 | 14.1 µM [rising, partial curve, poor fit] |  |
| CCOCCCNC(=O)c1cc(Sc2cccc(Cl)c2)nc2ccccc12 |  | 3.16 µM [falling, partial curve] |
| O=C(Nc1ccon1)c1ccc(Cl)s1 | 5.62 µM [rising, single point] |  |
| Cc1ccc(/C=N/NC(=O)C2CC(=O)N(c3ccccc3)C2)s1 (stereo not drawn) | 15.8 µM [rising, single point] |  |
| CC(C)(C)c1ccc(C(=O)NCCC(=O)NCc2ccco2)cc1 | 11.2 µM [falling, partial curve] | 11.2 µM [falling, single point] |
| Cc1cc(O)ccc1N/C=C1\CCCC1=O | 35.5 µM [rising, single point] | 35.5 µM [rising, single point] |
| COC(=O)c1ccc(OCC(=O)c2ccc(C)c(C)c2)cc1 | 0.158 µM [rising, full curve, poor fit] |  |
| Cc1ccc(OCCOc2ccc(Br)cc2)c([N+](=O)[O-])n1 | 35.5 µM [rising, single point] | 0.794 µM [rising, partial curve] |
| Cc1ccc(CC(=O)Nc2ccc3c(c2)N(C)C(=O)c2ccccc2S3)cc1 |  | 5.62 µM [falling, partial curve] |
| C=CCOC(=O)C1=C(C)NC(SCC(=O)Nc2nccs2)=C(C#N)C1c1ccc(Cl)cc1 (stereo not drawn) | 20 µM [falling, partial curve] | 22.4 µM [falling, single point] |
| COCCCn1c(=NC(=O)c2ccc3c(c2)OCO3)c(C#N)cc2c(=O)n3cccc(C)c3nc21 | 15.8 µM [rising, single point] | 17.8 µM [rising, single point] |
